Article PMC10114474
These are yes or no findings as the source states them, for the method shown. In cells and extracts the contact can be indirect. Some binding calls cover weakened binding; strength is not graded here.

Biological target: T1, carbohydrate sulfotransferase 11 (CHST11) (human (endogenous in OCI-LY1 and U2932)) (UniProt Q9NPF2)
T1 sequence: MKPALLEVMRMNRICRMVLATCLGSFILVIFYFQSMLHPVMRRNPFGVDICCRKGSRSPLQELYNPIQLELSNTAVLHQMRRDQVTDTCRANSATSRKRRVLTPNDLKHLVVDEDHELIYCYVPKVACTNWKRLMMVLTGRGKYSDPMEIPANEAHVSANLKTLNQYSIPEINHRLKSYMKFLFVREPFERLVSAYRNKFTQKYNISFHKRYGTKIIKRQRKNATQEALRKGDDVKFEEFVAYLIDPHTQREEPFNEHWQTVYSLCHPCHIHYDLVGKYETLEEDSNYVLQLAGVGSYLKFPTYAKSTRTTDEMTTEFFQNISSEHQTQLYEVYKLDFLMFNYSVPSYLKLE
Assay: co-IP; endogenous proteins; DLBCL cells (OCI-LY1, U2932) lysed in RIPA buffer with protease inhibitors; lysate incubated overnight with 2 µg antibody, normal IgG as negative control; Protein A/G Plus-agarose beads 4 h at 4 °C; western blotting

B1: MOB1B (protein, UniProt Q7L9L4 1-216)
chain: MSFLFGSRSSKTFKPKKNIPEGSHQYELLKHAEATLGSGNLRMAVMLPEGEDLNEWVAVNTVDFFNQINMLYGTITDFCTEESCPVMSAGPKYEYHWADGTNIKKPIKCSAPKYIDYLMTWVQDQLDDETLFPSKIGVPFPKNFMSVAKTILKRLFRVYAHIYHQHFDPVIQLQEEAHLNTSFKHFIFFVQEFNLIDRRELAPLQELIEKLTSKDR
- binding: binds
